# PubChem BioAssay AID1259415 (National Center for Advancing Translational Sciences (NCATS), 2018)
# Among all 410,000 compounds or so, about 18,000 (4.4%) were called active. Inconclusive means that the source gave no clear call. Such entries were picked first, then a sample of the others. Rule as the data show it: active = activity change below about -60%; inconclusive = no clear call, values can overlap the other calls; inactive = above about -39%. Where a structure was tested more than once in an assay, its records may differ in their call.
# Assay: qHTS Assay for inhibitors of the human cytomegalovirus (HCMV)
# Conditions: HFF cells, HCMV-luciferase reporter, 72 h; at 57.5 µM; stronger effect = lower value
# Summary of the method: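 Compounds were evaluated in HFFs infected with an HCMV luciferase reporter virus (MOI 1 PFU/cell). Luciferase in lysates collected 72 h post infection served as the replication measure.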
# % is scaled to controls: 0 for no effect and ±100 for the full control effect.
row,SMILES,"activity change, negative = inhibition"
1,CCCc1cc(N2CCN(c3ccccc3F)CC2)n2cnnc2n1,inconclusive: -57.4%
2,Cc1ccccc1N1C(=O)C(Cl)=C(N2CCCCCC2)C1=O,inconclusive: -44.5%
3,COC(=O)Nc1cc(C(F)(F)F)ccc1N1CCN(c2ccccc2)CC1,inconclusive: -46.1%
4,Oc1cccc(Nc2cc3[nH]c(-c4ccccc4)cc3cn2)c1,active: -86.6%
5,CC(=O)N(CC(=O)Nc1nn(-c2ccccc2)nc1C(N)=O)Cc1ccccc1,inactive: -25.8%
6,CCC1CO/C(=C(\C(Cl)=C(Cl)Cl)[N+](=O)[O-])N1Cc1ccc(Cl)nc1 (stereo not given),inactive: -16.3%
7,CCNC(=O)COC(=O)CCNC(=O)c1cccc(C)c1,inactive: -28.9%
8,Cc1cnc(NC(=O)Cc2ccccc2F)s1,inconclusive: -42.9%
9,COc1ccc(S(=O)(=O)N2CCCCC2)cc1NC(=O)c1cccs1,inconclusive: -54.9%
10,C=C1CCC[C@]2(C)C[C@H]3OC(=O)C(CN[C@@H](C)c4ccccc4)[C@H]3CC12 (stereo not given in full),active: -63.9%
11,COc1ccc(/C=N/NC(=O)c2ccc(=O)[nH]n2)cc1OC,inconclusive: -53.3%
12,O=C(Nc1ccc(NC(=O)C2CC2)cn1)c1ccccc1Cl,inconclusive: -49.2%
13,COc1ccc(OC)c(Nc2nc(-c3cccc([N+](=O)[O-])c3)nc3ccccc23)c1,inconclusive: -57%
14,COC(=O)c1cc2sccc2n1Cc1nc(-c2cccc(Cl)c2)oc1C,active: -64.7%
15,CCC(=O)Nc1ccc(N2CCCCC2)c(C(=O)Nc2ccc(OC)cc2)c1,active: -81.5%
16,C=CCNC(=S)N/N=C(\C)c1ccc(OC)cc1,inactive: -28%
17,CC(C)=CCN1CCN(Cc2ccc(C)s2)CC1CCO (stereo not given),active: -67.1%
18,Cc1nc(N)nc(SCc2ccc([N+](=O)[O-])cc2)c1N,inconclusive: -42.6%
19,COc1ccc(N(Cc2cc3ccccc3[nH]c2=O)S(=O)(=O)c2ccc(C)cc2)cc1,inconclusive: -46.6%
20,COc1ccc(NC(=O)c2nc(SCc3ccc(F)cc3)ncc2Cl)cc1,inactive: -35.8%
21,CCN(CC)CCCN=Cc1c(O)n(-c2ccccc2C)c(=O)c2ccccc12,inactive: -32.6%
22,Cc1ccc(OCCSc2nnc(-c3cccs3)n2C)cc1,inconclusive: -40.7%
23,CCOc1cc(C(=O)N/N=C/c2ccoc2)cc(OCC)c1OCC,active: -88%
24,CCOC(=O)c1cn2nc(SCc3ccccc3)nc2nc1C,inactive: 15.8%
25,COc1ccc(-c2csc(NC(=O)C3CC(=O)N(c4ccc5c(c4)OCCO5)C3)n2)cc1 (stereo not given),inconclusive: -58.6%

# Part of the list above, with bars between the fields.
row | SMILES | activity change, negative = inhibition
1 | CCCc1cc(N2CCN(c3ccccc3F)CC2)n2cnnc2n1 | inconclusive: -57.4%
2 | Cc1ccccc1N1C(=O)C(Cl)=C(N2CCCCCC2)C1=O | inconclusive: -44.5%
